# Results published in PubChem BioAssay (NCATS).
# Where “and” joins values, the source holds several entries; their conditions need not be identical. Identical values can stand only once. This list was built around the results that the source calls inconclusive (neither active nor inactive); the mix of calls is not that of the screen. Calls of active or inactive are those of the source. Calls come from the whole dose curve; as a rule, active = well fitted curve in either direction with a large enough effect (not every such curve was filed as active); inconclusive = small, poorly fitted or top-dose-only effect, or another doubt; inactive = flat fitted curve, though single readings scatter.
# Test: Stat Signaling Pathway (AID 446)
# Details: ME-180 SIE beta-lactamase reporter, IL-6 stimulated, 5 h; at 17.2 µM (top of the series)
# Procedure: NCGC Assay Overview: The IL-6/STAT signaling pathway was assayed in ME-180 cervical carcinoma cells by a beta-lactamase reporter gene controlled by a STAT Inducible Element (SIE). This reporter is induced by IL-6 at 40 pM AC50 and inhibited by the pan JAK inhibitor, 2-(1,1-Dimethylethyl)-9-fluoro-3,6-dihydro-7H-benz[h]-imidaz[4,5-f]isoquinolin-7-one, at approximately 10 nM AC50. Plated cells were incubated overnight and on the following day, stimulated with 40 pM IL-6 for 5 hrs. The assay was screened at the AC50 of IL-6 activation to identify both inhibitors and activators of IL-6/STAT signaling.
# NCGC Assay Protocol Summary: Cells were trypsinized, washed in assay medium (AM, OPTI MEM with 0.5% fetal bovine serum, 0.1 mM nonessential amino acids, 1 mM sodium pyruvate, 10mM HEPES pH 7.3, 100U/ml penicillin, and 100 ug/ml streptomycin) and suspended at 6 x 10e5/ml in AM. Approximately […] cells in 5 uL/well was dispensed into 1536 well plates and the cells were incubated overnight at 37 C. 23 nL of compound were delivered by a pin tool and 1 uL of IL-6 (40 pM final concentration in AM) was added. After centrifugation at 1000 rpm for less than a minute, plates were incubated at 37C for 5 hrs. One uL of detector mix (LiveBLAzerTM, Invitrogen) was added, the plates incubated at room temperature for 2.5 hrs, and fluorescence intensity at 460 and 530 nm emission was measured at 405 nm excitation by an Envision (Perkin Elmer) or Safire II (Tecan). Data were normalized by GeneData to the controls for AC90 stimulation (300 pM IL-6) and to AC90 inhibition (125 nM Jak inhibitor, 40 pM IL-6 in AM).
# % is set by controls: 0 for no effect and ±100 for the full control effect.
row,Structure (SMILES),"activity, negative = inhibition"
1,Cc1c2ccncc2c(C)c2c1[nH]c1ccccc12,active: 128% [activator] and active: 142% [activator]

# Same assay, conditions: ME-180 SIE beta-lactamase reporter, IL-6 stimulated, 5 h; at 38 µM (top of the series)
row,Structure (SMILES),"activity, negative = inhibition"
1,Cc1c2ccncc2c(C)c2c1[nH]c1ccccc12,inconclusive: 110% [activator]

# Same assay, conditions: ME-180 (cervical carcinoma) SIE beta-lactamase reporter, IL-6 stimulated, 5 h; at 38 µM (top of the series) unless noted
row,Structure (SMILES),"activity, negative = inhibition"
1,CC(C)(O)/C=C\C(=O)[C@](C)(O)[C@H]1[C@H](O)C[C@]2(C)[C@@H]3CC=C4[C@@H](C=C(O)C(=O)C4(C)C)[C@]3(C)C(=O)C[C@@]12C,inconclusive: -61.9% [inhibitor] [at 7.69 µM]
2,C[C@H](N)c1cccc(Cl)c1Cl,inconclusive: -33.5% [inhibitor]
3,CC(C)CN1CCC2(CC1)CCN(S(C)(=O)=O)CC2,inconclusive: 10.5% [activator] [at 7.69 µM]
4,O=P(O)(OP(=O)(O)c1ccccc1)c1ccccc1 (tested in a mixture with another compound),inactive: 2.23% [at 7.69 µM]
5,CCCN(CCC)[C@@H]1CCc2cccc(O)c2C1,inconclusive: 36.9% [activator]
6,COc1ccc2[nH]c3c(c2c1)CCNC3,inactive: 9.97%
7,C[N+](C)(C)CC#CCN1CCCC1=O,inconclusive: 86.2% [activator]
8,Clc1ccc(COC(Cn2ccnc2)c2ccc(Cl)cc2Cl)c(Cl)c1 (stereo not given),inconclusive: -30% [inhibitor] [at 17.2 µM]
9,O=C(Oc1ccccc1)N1CCC2(CCN(Cc3nccs3)CC2)CC1,inactive: 1.55% [at 7.69 µM]
10,CN1CCC(OC(=O)C2c3ccccc3Oc3ccccc32)CC1,inactive: 8.39% [at 17.2 µM]
11,NC(N)=NOCC[C@H](N)C(=O)O,inconclusive: -52.8% [inhibitor]
12,COc1ccc2c3c([nH]c2c1)C(C)=NCC3,inconclusive: 30.5% [activator] [at 17.2 µM]
13,COC(=O)[C@@H]1c2cc3c(c(O)c2[C@@H](O)C[C@]1(C)O)C(=O)c1c(O)cc2c(c1C3=O)O[C@H]1O[C@@]2(C)[C@@H](O)[C@H](N(C)C)[C@H]1O,inactive: -3.22% [at 7.69 µM]
14,CC[C@H]1CN2CCc3cc(OC)c(OC)cc3[C@H]2C[C@@H]1C[C@H]1NCCc2c1[nH]c1ccc(O)cc21,inconclusive: -57.7% [inhibitor] [at 7.69 µM]
15,CC(C)Oc1cccnc1N(C)C1CCN(Cc2ccccc2)CC1,inconclusive: -6.5% [inhibitor]
16,CC(=O)OC1(Cc2ccccc2)CN2CCC1c1ccccc12 (stereo not given),inactive: 5.99% [at 17.2 µM]
17,CC[C@H]1C(=O)OC[C@H]1Cc1cncn1C,inconclusive: -39.3% [inhibitor] [at 17.2 µM]
18,CN(C(=O)Cc1ccc(Cl)c(Cl)c1)[C@@H](CN1CCCC1)c1cccc(OCC(=O)O)c1,inactive: -15.3%
19,O=C1C[C@@H]2OCC=C3CN4CC[C@]56c7ccccc7N1[C@@H]5[C@@H]2[C@H]3C[C@H]46 (tested in a mixture with another compound),inconclusive: 3.02% [activator] [at 7.69 µM]

row,Structure (SMILES),"activity, negative = inhibition"
1,C=CCN1CC[C@@]23c4c5ccc(O)c4O[C@H]2/C(=N\N=C2/CC[C@@]4(O)[C@H]6Cc7ccc(O)c8c7[C@@]4(CCN6CC=C)[C@@H]2O8)CC[C@]3(O)[C@@H]1C5,inconclusive: -32.2% [inhibitor]
2,NNc1c(C(N)=O)c2c(N)ncnc2n1[C@@H]1O[C@H](CO)[C@@H](O)[C@@H]1O,inconclusive: -31.1% [inhibitor] [at 7.69 µM]
3,CC(=O)NBr,inconclusive: 74.7% [activator]
4,CNC(=O)OCC[N+](C)(C)C,inconclusive: 54.4% [activator]
5,N[C@@H](Cc1cc(O)c(O)cc1O)C(=O)O,inconclusive: -41.5% [inhibitor]
6,Clc1cc(I)cc(Cl)c1NC1=NCCN1,inactive: -14.2%
7,O=C(c1ccncc1)N1CCC2(CC1)CN(Cc1ccccc1)C2,inconclusive: 11.7% [activator] [at 7.69 µM]
8,O=C(NCNC(=O)N[C@H]1C(=O)NC(=O)N1CO)N[C@H]1C(=O)NC(=O)N1CO,inactive: 3.56% [at 17.2 µM]
9,NC(=O)c1ccc(OC[C@H](O)CN2CC=C(c3ccc(F)cc3)CC2)cc1,inconclusive: -52.9% [inhibitor]
10,Cc1ccc2c(c1)[C@@H]1CN(C)CC[C@@H]1N2C(=O)Nc1cccc(C(F)(F)F)c1,inactive: -4.28% [at 17.2 µM]
11,CCCN1CCC[C@H](c2cccc(O)c2)C1,inactive: 0.0297% and inactive: 5.34%
12,C[C@@H]1O[C@H](O[C@@H]2CC[C@@]3(C=O)[C@H]4CC[C@@]5(C)[C@@H](C6=CC(=O)OC6)CC[C@@]5(O)[C@@H]4CC[C@]3(O)C2)C[C@H](O)[C@@H]1O,inconclusive: -30.2% [inhibitor] [at 17.2 µM]
13,O=C1NCCN2CCCC12 (stereo not given),inactive: 7.9% [at 17.2 µM]
14,C[C@]12Cc3cn4c(nc3C=C1CC[C@H]1[C@@H]2CC[C@@]2(C)[C@H]1CC[C@@]2(O)C#N)nc1ccccc14,inconclusive: -21.8% [inhibitor]
15,CCN1C[C@@]2(COC)CC[C@H](OC)[C@]34[C@@H]1[C@]1(OCO[C@@]15C[C@@H](OC)C1C[C@H]3[C@H]5[C@@H]1OC)[C@H](O)[C@@H]24,inactive: -6.99% [at 17.2 µM]
16,CCC[C@@](C)(COC(N)=O)COC(=O)NC(C)C,inconclusive: 81.4% [activator]
17,[N-]=[N+]=CC(=O)CC[C@H](N)C(=O)O,inactive: 6.39% [at 7.69 µM]
18,C[N+]1(C)[C@@H]2CC[C@H]1CC(OC(=O)c1c[nH]c3ccccc13)C2 (stereo not given in full),inconclusive: 44.9% [activator]
19,CN1CC[C@]2(C)c3cc(O)ccc3N(C)[C@@H]12,inconclusive: 65.2% [activator]
